Measured values: paper PMC11997541 (Journal of Peptide Science, 2025)

Assay: general procedure: Fmoc solid-phase peptide synthesis; Rink Amide MBHA resin, loading 0.65 mmol/g; TBEC/Oxyma Pure
Details: whole synthesis, analytical HPLC-MS (Phenomenex Kinetex XB-C18, Agilent 1260 Infinity II, 6130 quadrupole LC/MS)

| Substance | final LC-MS purity [%] |
| --- | --- |
| PEPTIDE1{[Laur].H.A.[dA].H.[am]}$$$$V2.0 | 96 |
| PEPTIDE1{[Laur].[D-His*].A.[dA].[D-His*].[am]}$$$$V2.0 | 95 |
| PEPTIDE1{[Laur].[L-His*].A.[dA].[L-His*].[am]}$$$$V2.0 | 96 |
| PEPTIDE1{[Palm].H.A.[dA].H.[am]}$$$$V2.0 | 97 |
| PEPTIDE1{[Palm].[D-His*].A.[dA].[D-His*].[am]}$$$$V2.0 | 95 |
| PEPTIDE1{[Palm].[L-His*].A.[dA].[L-His*].[am]}$$$$V2.0 | 95 |
| PEPTIDE1{[ac].H.A.[dA].H.[Aun].[am]}$$$$V2.0 | 99 |
| PEPTIDE1{[ac].[D-His*].A.[dA].[D-His*].[Aun].[am]}$$$$V2.0 | 99 |
| PEPTIDE1{[ac].[L-His*].A.[dA].[L-His*].[Aun].[am]}$$$$V2.0 | 99 |

Strings that start with PEPTIDE1 are HELM notation: dots part the residues, brackets hold end groups and non-standard residues.
